Holding throughout (experiment): affinity purification with mass spectrometry; GFP pulldown with GFP Tag Immunomagnetic Beads from lysates of HEK-293 Flp-In T-REx cells expressing EGFP, EGFP-MAB21L1 or mutant EGFP-MAB21L1 after 12 hrs of 1 μg/ml tetracycline; three biological replicates; MaxQuant
Assay [1] concerns the target T1, GFP-tagged MAB21L1 Arg51Gln (human) (UniProt Q13394).
T1 sequence: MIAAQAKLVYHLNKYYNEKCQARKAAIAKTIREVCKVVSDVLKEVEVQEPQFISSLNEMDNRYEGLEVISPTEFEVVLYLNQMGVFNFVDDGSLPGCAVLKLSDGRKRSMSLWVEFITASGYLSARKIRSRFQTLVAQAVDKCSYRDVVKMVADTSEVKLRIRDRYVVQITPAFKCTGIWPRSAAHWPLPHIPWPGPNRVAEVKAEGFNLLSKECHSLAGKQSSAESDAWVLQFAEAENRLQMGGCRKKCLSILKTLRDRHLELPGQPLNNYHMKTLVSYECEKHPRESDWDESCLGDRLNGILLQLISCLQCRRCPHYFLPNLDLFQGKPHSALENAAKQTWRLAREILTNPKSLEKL

By UniProt entry, the sequences of proteins in these tests, tags left out. Residues count along the entry.
UniProt P27448: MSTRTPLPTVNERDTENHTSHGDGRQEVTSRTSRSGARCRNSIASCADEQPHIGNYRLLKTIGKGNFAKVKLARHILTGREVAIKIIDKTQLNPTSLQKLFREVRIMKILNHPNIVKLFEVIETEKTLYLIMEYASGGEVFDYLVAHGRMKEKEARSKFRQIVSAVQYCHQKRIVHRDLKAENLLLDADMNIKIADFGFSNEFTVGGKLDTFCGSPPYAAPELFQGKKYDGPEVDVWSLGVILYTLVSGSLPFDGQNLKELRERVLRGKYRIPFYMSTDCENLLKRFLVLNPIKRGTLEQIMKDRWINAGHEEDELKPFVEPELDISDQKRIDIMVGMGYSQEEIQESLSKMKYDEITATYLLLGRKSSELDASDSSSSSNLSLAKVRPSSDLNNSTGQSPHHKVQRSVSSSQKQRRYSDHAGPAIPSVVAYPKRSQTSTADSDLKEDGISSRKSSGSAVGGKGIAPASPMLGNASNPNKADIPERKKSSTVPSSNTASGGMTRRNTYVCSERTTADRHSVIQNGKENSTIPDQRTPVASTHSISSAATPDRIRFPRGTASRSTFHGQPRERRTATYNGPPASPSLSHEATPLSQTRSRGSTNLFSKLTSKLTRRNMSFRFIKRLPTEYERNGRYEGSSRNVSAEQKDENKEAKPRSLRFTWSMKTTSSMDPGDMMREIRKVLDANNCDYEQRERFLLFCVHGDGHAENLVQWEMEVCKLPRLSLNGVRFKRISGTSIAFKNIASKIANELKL
UniProt Q13098: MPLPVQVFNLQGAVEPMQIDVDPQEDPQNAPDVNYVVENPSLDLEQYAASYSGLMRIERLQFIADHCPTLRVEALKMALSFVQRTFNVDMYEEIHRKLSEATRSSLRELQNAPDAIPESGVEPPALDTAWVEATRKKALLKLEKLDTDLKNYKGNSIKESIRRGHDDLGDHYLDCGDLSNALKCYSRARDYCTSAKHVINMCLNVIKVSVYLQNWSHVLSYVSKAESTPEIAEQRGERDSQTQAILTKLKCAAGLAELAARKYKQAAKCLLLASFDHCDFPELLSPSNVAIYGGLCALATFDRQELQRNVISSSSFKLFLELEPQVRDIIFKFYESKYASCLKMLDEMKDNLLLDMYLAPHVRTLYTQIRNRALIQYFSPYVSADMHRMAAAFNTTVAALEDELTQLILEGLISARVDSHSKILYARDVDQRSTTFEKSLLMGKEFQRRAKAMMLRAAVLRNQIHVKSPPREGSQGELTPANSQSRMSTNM
UniProt P13984: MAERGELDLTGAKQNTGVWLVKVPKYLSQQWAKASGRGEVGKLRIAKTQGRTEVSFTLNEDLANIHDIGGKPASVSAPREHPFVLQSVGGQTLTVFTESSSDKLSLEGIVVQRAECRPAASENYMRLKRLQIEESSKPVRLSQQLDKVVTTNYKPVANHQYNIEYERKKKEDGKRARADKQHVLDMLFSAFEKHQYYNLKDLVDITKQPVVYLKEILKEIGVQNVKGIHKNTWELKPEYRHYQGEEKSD
UniProt Q9Y605: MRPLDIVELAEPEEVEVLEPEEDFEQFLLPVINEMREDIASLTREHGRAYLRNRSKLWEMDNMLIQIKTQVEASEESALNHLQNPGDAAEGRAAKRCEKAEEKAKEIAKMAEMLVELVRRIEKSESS
UniProt P54252: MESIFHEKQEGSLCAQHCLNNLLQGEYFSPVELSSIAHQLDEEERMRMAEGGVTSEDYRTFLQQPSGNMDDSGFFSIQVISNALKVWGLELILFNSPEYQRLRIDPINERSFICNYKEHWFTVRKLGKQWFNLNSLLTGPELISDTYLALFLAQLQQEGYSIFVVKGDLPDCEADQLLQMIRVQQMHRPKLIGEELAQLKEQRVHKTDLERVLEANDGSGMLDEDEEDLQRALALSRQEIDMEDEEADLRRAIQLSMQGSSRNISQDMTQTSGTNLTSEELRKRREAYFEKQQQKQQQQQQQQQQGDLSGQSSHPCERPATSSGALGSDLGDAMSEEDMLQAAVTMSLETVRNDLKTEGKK
UniProt Q09161: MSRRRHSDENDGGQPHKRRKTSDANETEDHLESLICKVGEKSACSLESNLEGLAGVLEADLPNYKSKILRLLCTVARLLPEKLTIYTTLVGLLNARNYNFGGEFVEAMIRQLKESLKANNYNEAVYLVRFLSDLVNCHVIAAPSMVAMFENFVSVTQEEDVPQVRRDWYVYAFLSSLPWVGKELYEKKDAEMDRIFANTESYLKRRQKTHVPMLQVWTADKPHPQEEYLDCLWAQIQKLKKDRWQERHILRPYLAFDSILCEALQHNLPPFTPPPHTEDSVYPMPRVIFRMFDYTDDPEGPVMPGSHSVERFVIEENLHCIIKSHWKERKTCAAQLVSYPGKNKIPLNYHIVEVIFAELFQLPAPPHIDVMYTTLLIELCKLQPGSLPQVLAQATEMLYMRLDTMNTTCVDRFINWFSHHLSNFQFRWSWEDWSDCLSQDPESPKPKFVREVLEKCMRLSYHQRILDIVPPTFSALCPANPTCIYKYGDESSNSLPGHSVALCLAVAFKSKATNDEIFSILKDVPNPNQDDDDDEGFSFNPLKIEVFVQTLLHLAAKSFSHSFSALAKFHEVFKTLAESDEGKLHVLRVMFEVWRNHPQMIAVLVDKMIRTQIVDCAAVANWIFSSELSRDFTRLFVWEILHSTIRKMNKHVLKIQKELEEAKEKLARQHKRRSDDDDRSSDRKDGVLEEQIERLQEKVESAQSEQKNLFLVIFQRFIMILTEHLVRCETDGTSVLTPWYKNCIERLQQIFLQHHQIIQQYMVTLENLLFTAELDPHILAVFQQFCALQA
UniProt P25685: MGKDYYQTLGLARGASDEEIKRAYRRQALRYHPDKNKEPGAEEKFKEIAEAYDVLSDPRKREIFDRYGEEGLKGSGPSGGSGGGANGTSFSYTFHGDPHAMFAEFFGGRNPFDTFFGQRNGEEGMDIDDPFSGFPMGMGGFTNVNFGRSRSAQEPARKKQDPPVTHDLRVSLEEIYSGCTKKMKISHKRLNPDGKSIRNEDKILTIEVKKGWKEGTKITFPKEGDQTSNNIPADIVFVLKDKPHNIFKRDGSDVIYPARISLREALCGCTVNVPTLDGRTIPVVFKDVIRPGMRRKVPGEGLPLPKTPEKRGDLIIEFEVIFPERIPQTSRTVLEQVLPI
UniProt Q9NP81, residues 35-518: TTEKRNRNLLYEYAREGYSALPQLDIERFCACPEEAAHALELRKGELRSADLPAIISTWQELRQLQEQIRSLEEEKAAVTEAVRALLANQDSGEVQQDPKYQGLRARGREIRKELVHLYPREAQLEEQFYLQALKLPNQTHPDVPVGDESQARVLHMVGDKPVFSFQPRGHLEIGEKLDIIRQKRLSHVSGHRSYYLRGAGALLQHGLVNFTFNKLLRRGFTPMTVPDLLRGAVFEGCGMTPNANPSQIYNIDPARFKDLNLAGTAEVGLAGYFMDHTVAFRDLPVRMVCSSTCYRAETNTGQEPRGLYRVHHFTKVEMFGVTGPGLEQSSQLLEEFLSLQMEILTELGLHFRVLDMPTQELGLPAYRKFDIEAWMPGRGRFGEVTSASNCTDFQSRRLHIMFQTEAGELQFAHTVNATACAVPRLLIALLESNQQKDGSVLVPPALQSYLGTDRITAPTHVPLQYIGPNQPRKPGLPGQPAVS
UniProt O43347: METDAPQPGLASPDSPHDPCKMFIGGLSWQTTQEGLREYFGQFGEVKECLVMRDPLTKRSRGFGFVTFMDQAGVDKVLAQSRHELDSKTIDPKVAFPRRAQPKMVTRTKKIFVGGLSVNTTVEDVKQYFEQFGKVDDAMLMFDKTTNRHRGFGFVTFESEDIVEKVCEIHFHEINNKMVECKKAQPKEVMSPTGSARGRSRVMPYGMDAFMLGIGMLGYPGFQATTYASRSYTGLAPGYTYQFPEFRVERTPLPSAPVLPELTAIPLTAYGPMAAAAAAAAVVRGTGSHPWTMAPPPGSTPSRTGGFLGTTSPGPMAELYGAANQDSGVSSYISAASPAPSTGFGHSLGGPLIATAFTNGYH
UniProt Q9NV88: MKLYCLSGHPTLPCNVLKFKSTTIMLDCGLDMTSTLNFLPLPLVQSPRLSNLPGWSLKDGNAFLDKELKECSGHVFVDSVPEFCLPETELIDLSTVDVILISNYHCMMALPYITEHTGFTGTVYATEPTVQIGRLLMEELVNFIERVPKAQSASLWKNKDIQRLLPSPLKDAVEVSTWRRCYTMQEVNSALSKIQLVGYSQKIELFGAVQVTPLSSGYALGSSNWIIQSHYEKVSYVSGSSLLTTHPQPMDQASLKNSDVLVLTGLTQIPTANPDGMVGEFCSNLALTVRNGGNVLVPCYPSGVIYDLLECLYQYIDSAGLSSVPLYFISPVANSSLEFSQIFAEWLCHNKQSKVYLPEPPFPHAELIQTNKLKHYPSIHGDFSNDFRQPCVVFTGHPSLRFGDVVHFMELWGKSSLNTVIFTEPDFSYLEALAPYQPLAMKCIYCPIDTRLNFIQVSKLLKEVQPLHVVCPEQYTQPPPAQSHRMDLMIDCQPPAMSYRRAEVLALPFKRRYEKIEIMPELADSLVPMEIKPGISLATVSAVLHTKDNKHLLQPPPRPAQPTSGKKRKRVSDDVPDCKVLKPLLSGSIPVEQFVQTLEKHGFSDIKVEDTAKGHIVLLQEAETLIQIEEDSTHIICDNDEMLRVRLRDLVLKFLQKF
UniProt O00311: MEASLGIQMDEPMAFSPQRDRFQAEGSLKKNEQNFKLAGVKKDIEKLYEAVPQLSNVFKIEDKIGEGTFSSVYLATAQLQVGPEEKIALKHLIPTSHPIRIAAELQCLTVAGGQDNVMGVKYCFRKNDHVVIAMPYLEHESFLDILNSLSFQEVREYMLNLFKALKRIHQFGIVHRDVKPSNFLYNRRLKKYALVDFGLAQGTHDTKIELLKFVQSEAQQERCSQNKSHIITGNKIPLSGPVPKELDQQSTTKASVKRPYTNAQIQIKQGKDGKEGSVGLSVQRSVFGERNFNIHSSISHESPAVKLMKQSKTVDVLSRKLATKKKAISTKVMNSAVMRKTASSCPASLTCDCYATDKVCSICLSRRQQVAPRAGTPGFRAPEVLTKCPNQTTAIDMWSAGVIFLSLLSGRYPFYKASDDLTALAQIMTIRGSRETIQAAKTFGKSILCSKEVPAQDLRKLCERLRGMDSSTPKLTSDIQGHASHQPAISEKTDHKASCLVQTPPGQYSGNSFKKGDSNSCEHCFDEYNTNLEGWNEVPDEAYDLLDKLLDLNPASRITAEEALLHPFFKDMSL
UniProt Q13425: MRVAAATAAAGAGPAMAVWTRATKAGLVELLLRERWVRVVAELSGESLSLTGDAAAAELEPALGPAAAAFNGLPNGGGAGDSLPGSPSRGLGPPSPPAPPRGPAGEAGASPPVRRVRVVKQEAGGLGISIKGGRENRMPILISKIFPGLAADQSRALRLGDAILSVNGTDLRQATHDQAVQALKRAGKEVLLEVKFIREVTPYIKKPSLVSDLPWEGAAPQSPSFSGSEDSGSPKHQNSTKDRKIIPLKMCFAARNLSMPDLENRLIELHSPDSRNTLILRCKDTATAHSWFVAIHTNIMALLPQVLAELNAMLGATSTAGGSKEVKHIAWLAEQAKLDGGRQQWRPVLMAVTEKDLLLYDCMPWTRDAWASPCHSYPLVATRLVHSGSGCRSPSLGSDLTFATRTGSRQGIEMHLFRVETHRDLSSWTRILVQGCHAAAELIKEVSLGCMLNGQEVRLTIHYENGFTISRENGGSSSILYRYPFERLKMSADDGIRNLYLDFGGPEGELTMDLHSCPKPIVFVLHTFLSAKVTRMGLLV
UniProt P46063: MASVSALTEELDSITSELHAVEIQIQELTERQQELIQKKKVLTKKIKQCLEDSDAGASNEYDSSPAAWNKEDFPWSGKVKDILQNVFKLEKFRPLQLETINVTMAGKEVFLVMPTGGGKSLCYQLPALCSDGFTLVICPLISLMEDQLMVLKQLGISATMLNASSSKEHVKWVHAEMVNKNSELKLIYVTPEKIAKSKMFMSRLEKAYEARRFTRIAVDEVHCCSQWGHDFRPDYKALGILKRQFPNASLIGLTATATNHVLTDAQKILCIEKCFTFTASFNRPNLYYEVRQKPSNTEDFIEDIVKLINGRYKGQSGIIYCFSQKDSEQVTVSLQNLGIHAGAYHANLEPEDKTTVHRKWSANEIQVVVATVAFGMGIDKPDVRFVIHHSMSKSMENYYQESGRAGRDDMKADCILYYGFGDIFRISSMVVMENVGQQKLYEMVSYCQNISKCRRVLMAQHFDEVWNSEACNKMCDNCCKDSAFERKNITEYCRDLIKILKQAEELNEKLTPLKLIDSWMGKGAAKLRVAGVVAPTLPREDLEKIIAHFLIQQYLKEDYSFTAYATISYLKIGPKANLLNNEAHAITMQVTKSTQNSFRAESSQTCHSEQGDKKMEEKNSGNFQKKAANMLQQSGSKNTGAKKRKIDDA

Assay [2] concerns the target T2, GFP-tagged MAB21L1 Arg51Leu (human) (UniProt Q13394).
T2 sequence: T1 sequence with Q51L

Assay [3] concerns the target T3, GFP-tagged wild-type MAB21L1 (human) (UniProt Q13394).
T3 sequence: T1 sequence with Q51R

Our source for the binding values is PMC9681113.

Numbering of substitutions follows the chain as printed. These are yes or no findings as the source states them, for the method shown. In cells and extracts the contact can be indirect. Here binding means that the protein was enriched with, or labelled near, the bait; the list need not be complete. For part of these data: No binding means not detected with the bait. Tags and fused reporters may be left off the sequences shown.

On to MARK3 (from UniProt P27448 1-753), for which the binding result in assay [1], in assay [2] and in assay [3] was “binds” each time.

Take ZC3H7A (from UniProt Q8IWR0 1-971): the binding result in assay [1], in assay [2] and in assay [3] was “binds” throughout.

As for IPO8 (from UniProt O15397 1-1037), the binding result in assay [1], in assay [2] and in assay [3] was “binds” each time.

With GALNT2 (from UniProt Q10471 1-571), the binding result is on record as “binds” in assay [1], “binds” in assay [2] and “no binding” in assay [3].

In the case of GPS1 (from UniProt Q13098 1-491), the binding result in assay [1], in assay [2] and in assay [3] was “binds” in each case.

Take GTF2F2 (from UniProt P13984 1-249): the binding entry in assay [1], in assay [2] and in assay [3] was “binds” each time.

In the case of DIAPH1 (from UniProt O60610 1-1272), the binding entry in assay [1], in assay [2] and in assay [3] was “binds” each time.

Take MRFAP1 (from UniProt Q9Y605 1-127): the binding entry in assay [1], in assay [2] and in assay [3] was “binds” throughout.

On to ATXN3 (from UniProt P54252 1-361), for which the binding entry in assay [1], in assay [2] and in assay [3] was “binds” in each case.

Take NCBP1 (from UniProt Q09161 1-790): the binding entry in assay [1], in assay [2] and in assay [3] was “binds” in each case.

DNAJB1 (from UniProt P25685 1-340): the binding result in assay [1], in assay [2] and in assay [3] was “binds” throughout.

In the case of SARS2 (from UniProt Q9NP81 35-518), the binding result in assay [1], in assay [2] and in assay [3] was “binds” throughout.

Turning to Musashi-1 (from UniProt O43347 1-362), the binding entry in assay [1], in assay [2] and in assay [3] was “binds” in each case.

INTS9 (from UniProt Q9NV88 1-658): the binding result in assay [1], in assay [2] and in assay [3] was “binds” in each case.

With CDC7 (from UniProt O00311 1-574), the binding result in assay [1], in assay [2] and in assay [3] was “binds” throughout.

For the substance ZNF460 (from UniProt Q14592 1-562), the binding result in assay [1], in assay [2] and in assay [3] was “binds” each time.

As to SNTB2 (from UniProt Q13425 1-540), the binding result in assay [1], in assay [2] and in assay [3] was “binds” in each case.

Consider RECQL (from UniProt P46063 1-649), for which the binding result in assay [1], in assay [2] and in assay [3] was “binds” throughout.
